The list shows a part of the results.
Tests used:
Experiment in all cases: glycan array binding signal (z-score within array); higher = stronger binding
Details in all cases: glycan notation: IUPAC condensed, linker removed
[1] = molecular target: Fuc(a1-2)[Gal(a1-3)]Gal(b1-4)[Fuc(a1-3)]Glc
Procedure, shortened: (§1)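 Columns mapping to the same glycan were averaged after glycan names were converted to IUPAC-condensed notation. The data come from 3228 arrays in the Consortium for Functional Glycomics database, limited to those with an available protein sequence. Binding is reported as a within-array Z-score averaged across arrays of one protein sequence and across linkers.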

[2] = molecular target: Fuc(a1-2)[Gal(a1-3)]Gal(b1-4)[Fuc(a1-3)]GlcNAc
Procedure, shortened: as §1

[3] = molecular target: Fuc(a1-2)[Gal(a1-3)]Gal(b1-4)[Fuc(a1-3)]GlcNAc(b1-3)GalNAc
Procedure, shortened: as §1

[4] = molecular target: Fuc(a1-2)[Gal(a1-4)]Gal(b1-4)GlcNAc
Procedure, shortened: as §1

[5] = molecular target: Fuc(a1-2)[GalNAc(a1-3)]Gal
Procedure, shortened: as §1

[6] = molecular target: Fuc(a1-2)[GalNAc(a1-3)]Gal(b1-3)GalNAc(a1-3)[Fuc(a1-2)]Gal(b1-4)GlcNAc
Procedure, shortened: as §1

[7] = molecular target: Fuc(a1-2)[GalNAc(a1-3)]Gal(b1-3)GlcNAc
Procedure, shortened: as §1

[8] = molecular target: Fuc(a1-2)[GalNAc(a1-3)]Gal(b1-3)GlcNAc(b1-2)Man(a1-3)[Fuc(a1-2)[GalNAc(a1-3)]Gal(b1-3)GlcNAc(b1-2)Man(a1-6)]Man(b1-4)GlcNAc(b1-4)GlcNAc
Procedure, shortened: as §1

[9] = molecular target: Fuc(a1-2)[GalNAc(a1-3)]Gal(b1-3)GlcNAc(b1-2)Man(a1-3)[Fuc(a1-2)[GalNAc(a1-3)]Gal(b1-3)GlcNAc(b1-2)Man(a1-6)]Man(b1-4)GlcNAc(b1-4)[Fuc(a1-6)]GlcNAc
Procedure, shortened: as §1

[10] = molecular target: Fuc(a1-2)[GalNAc(a1-3)]Gal(b1-3)GlcNAc(b1-3)GalNAc
Procedure, shortened: as §1

[11] = molecular target: Fuc(a1-2)[GalNAc(a1-3)]Gal(b1-3)GlcNAc(b1-6)GalNAc
Procedure, shortened: as §1

[12] = molecular target: Fuc(a1-2)[GalNAc(a1-3)]Gal(b1-4)Glc
Procedure, shortened: as §1

[13] = molecular target: Fuc(a1-2)[GalNAc(a1-3)]Gal(b1-4)GlcNAc
Procedure, shortened: as §1

[14] = molecular target: Fuc(a1-2)[GalNAc(a1-3)]Gal(b1-4)GlcNAc(b1-2)Man(a1-3)[Fuc(a1-2)[GalNAc(a1-3)]Gal(b1-4)GlcNAc(b1-2)Man(a1-6)]Man(b1-4)GlcNAc(b1-4)GlcNAc
Procedure, shortened: as §1

[15] = molecular target: Fuc(a1-2)[GalNAc(a1-3)]Gal(b1-4)GlcNAc(b1-2)Man(a1-3)[Fuc(a1-2)[GalNAc(a1-3)]Gal(b1-4)GlcNAc(b1-2)Man(a1-6)]Man(b1-4)GlcNAc(b1-4)[Fuc(a1-6)]GlcNAc
Procedure, shortened: as §1

[16] = molecular target: Fuc(a1-2)[GalNAc(a1-3)]Gal(b1-4)GlcNAc(b1-3)Gal(b1-4)GlcNAc
Procedure, shortened: as §1

[17] = molecular target: Fuc(a1-2)[GalNAc(a1-3)]Gal(b1-4)GlcNAc(b1-3)Gal(b1-4)GlcNAc(b1-3)Gal(b1-4)GlcNAc
Procedure, shortened: as §1

[18] = molecular target: Fuc(a1-2)[GalNAc(a1-3)]Gal(b1-4)GlcNAc(b1-3)GalNAc
Procedure, shortened: as §1

[19] = molecular target: Fuc(a1-2)[GalNAc(a1-3)]Gal(b1-4)[Fuc(a1-3)]GlcNAc
Procedure, shortened: as §1

[20] = molecular target: Fuc(a1-2)[GalNAc(a1-3)]Gal(b1-4)[Fuc(a1-3)]GlcNAc(b1-3)GalNAc
Procedure, shortened: as §1

[21] = molecular target: Fuc(a1-2)[GalNAc(a1-4)]Gal(b1-4)GlcNAc
Procedure, shortened: as §1

[22] = molecular target: Fuc(a1-2)[GalNAc(b1-3)]Gal
Procedure, shortened: as §1

[23] = molecular target: Fuc(a1-3)GlcNAc
Procedure, shortened: as §1

[24] = molecular target: Fuc(a1-3)[Gal(b1-4)]Glc6S
Procedure, shortened: as §1

[25] = molecular target: Fuc(a1-3)[Gal(b1-4)]GlcNAc
Procedure, shortened: as §1

[26] = molecular target: Fuc(a1-3)[Gal(b1-4)]GlcNAc(b1-2)Man
Procedure, shortened: as §1

[27] = molecular target: Fuc(a1-3)[Gal(b1-4)]GlcNAc(b1-2)Man(a1-3)[Fuc(a1-3)[Gal(b1-4)]GlcNAc(b1-2)Man(a1-6)]Man(b1-4)GlcNAc(b1-4)GlcNAc
Procedure, shortened: as §1

[28] = molecular target: Fuc(a1-3)[Gal(b1-4)]GlcNAc(b1-2)Man(a1-3)[Fuc(a1-3)[Gal(b1-4)]GlcNAc(b1-2)Man(a1-6)]Man(b1-4)GlcNAc(b1-4)[Fuc(a1-6)]GlcNAc
Procedure, shortened: as §1

[29] = molecular target: Fuc(a1-3)[Gal(b1-4)]GlcNAc(b1-3)Gal(b1-3)[Fuc(a1-4)]GlcNAc
Procedure, shortened: as §1

[30] = molecular target: Fuc(a1-3)[Gal(b1-4)]GlcNAc(b1-3)GalNAc
Procedure, shortened: as §1

[31] = molecular target: Fuc(a1-3)[Gal(b1-4)]GlcNAc(b1-4)Gal(b1-4)[Fuc(a1-3)]GlcNAc
Procedure, shortened: as §1

[32] = molecular target: Fuc(a1-3)[Gal(b1-4)]GlcNAc(b1-4)Gal(b1-4)[Fuc(a1-3)]GlcNAc(b1-4)Gal(b1-4)[Fuc(a1-3)]GlcNAc
Procedure, shortened: as §1

[33] = molecular target: Fuc(a1-3)[Gal(b1-4)]GlcNAc(b1-6)GalNAc
Procedure, shortened: as §1

[34] = molecular target: Fuc(a1-3)[Gal(b1-4)]GlcNAc(b1-6)[Gal(b1-3)GlcNAc(b1-3)]Gal(b1-4)Glc
Procedure, shortened: as §1

[35] = molecular target: Fuc(a1-3)[Gal(b1-4)]GlcNAc(b1-6)[Neu5Ac(a2-3)Gal(b1-3)]GalNAc
Procedure, shortened: as §1

[36] = molecular target: Fuc(a1-3)[Gal(b1-4)]GlcNAc6S
Procedure, shortened: as §1

[37] = molecular target: Fuc(a1-3)[Gal3S(b1-4)]GlcNAc
Procedure, shortened: as §1

[38] = molecular target: Fuc(a1-3)[Gal3S(b1-4)]GlcNAc6S
Procedure, shortened: as §1

[39] = molecular target: Fuc(a1-3)[GalNAc(b1-4)]GlcNAc
Procedure, shortened: as §1

[40] = molecular target: Fuc(a1-3)[GalNAc(b1-4)]GlcNAc6S
Procedure, shortened: as §1

[41] = molecular target: Fuc(a1-3)[GalNAc3S(b1-4)]GlcNAc
Procedure, shortened: as §1

[42] = molecular target: Fuc(a1-4)GlcNAc
Procedure, shortened: as §1

[43] = molecular target: Fuc(b1-3)GlcNAc
Procedure, shortened: as §1

[44] = molecular target: Gal(a1-2)Gal
Procedure, shortened: as §1

[45] = molecular target: Gal(a1-3)Gal
Procedure, shortened: as §1

B1: Intelectin-1a (Mus musculus) (protein)
chain: AEWSHPQFEKAEENLDTNRWGNSFFSSLPRSCKEIKQEHTKAQDGLYFLRTKNGVIYQTFCDMTTAGGGWTLVASVHENNMRGKCTVGDRWSSQQGNRADYPEGDGNWANYNTFGSAEAATSDDYKNPGYFDIQAENLGIWHVPNKSPLHNWRKSSLLRYRTFTGFLQHLGHNLFGLYKKYPVKYGEGKCWTDNGPALPVVYDFGDARKTASYYSPSGQREFTAGYVQFRVFNNERAASALCAGVRVTGCNTEHHCIGGGGFFPEGNPVQCGDFASFDWDGYGTHNGYSSSRKITEAAVLLFYR
glycan array binding signal (z-score) [1]: -0.817 | glycan array binding signal (z-score) [2]: 0.157 | glycan array binding signal (z-score) [3]: -1.73 | glycan array binding signal (z-score) [4]: 0.09 | glycan array binding signal (z-score) [5]: 0.968 | glycan array binding signal (z-score) [6]: 0.218 | glycan array binding signal (z-score) [7]: 0.794 | glycan array binding signal (z-score) [8]: 0.792 | glycan array binding signal (z-score) [9]: -0.14 | glycan array binding signal (z-score) [10]: 0.13 | glycan array binding signal (z-score) [11]: 1.27 | glycan array binding signal (z-score) [12]: -1.38 | glycan array binding signal (z-score) [13]: -0.103 | glycan array binding signal (z-score) [14]: -0.564 | glycan array binding signal (z-score) [15]: -0.075 | glycan array binding signal (z-score) [16]: -0.494 | glycan array binding signal (z-score) [17]: -0.802 | glycan array binding signal (z-score) [18]: 0.267 | glycan array binding signal (z-score) [19]: -1.53 | glycan array binding signal (z-score) [20]: 0.041 | glycan array binding signal (z-score) [21]: -1.02 | glycan array binding signal (z-score) [22]: -0.26 | glycan array binding signal (z-score) [23]: -0.632 | glycan array binding signal (z-score) [24]: 0.465 | glycan array binding signal (z-score) [25]: -0.321 | glycan array binding signal (z-score) [26]: -1.26 | glycan array binding signal (z-score) [27]: 1.33 | glycan array binding signal (z-score) [28]: 0.88 | glycan array binding signal (z-score) [29]: 1.24 | glycan array binding signal (z-score) [30]: -0.322 | glycan array binding signal (z-score) [31]: -0.178 | glycan array binding signal (z-score) [32]: -0.427 | glycan array binding signal (z-score) [33]: -0.233 | glycan array binding signal (z-score) [34]: 0.377 | glycan array binding signal (z-score) [35]: -0.328 | glycan array binding signal (z-score) [36]: 0.43 | glycan array binding signal (z-score) [37]: 0.708 | glycan array binding signal (z-score) [38]: 0.273 | glycan array binding signal (z-score) [39]: -0.582 | glycan array binding signal (z-score) [40]: 1.19 | glycan array binding signal (z-score) [41]: 0.115 | glycan array binding signal (z-score) [42]: 0.317 | glycan array binding signal (z-score) [43]: -0.215 | glycan array binding signal (z-score) [44]: 1.51 | glycan array binding signal (z-score) [45]: -1.09

From the supplement of paper PMC8728848
